Results published in paper PMC5736349.
These are yes or no findings as the source states them, for the method shown. Binding seen in cells or lysates may run through a third protein. Some results given as binding are weak or reduced against the parent protein; the word gives no strength. Sequences can lack the tags named with a protein.

Chains of the proteins cited; added tags and fusions are not shown.
UniProt Q62120: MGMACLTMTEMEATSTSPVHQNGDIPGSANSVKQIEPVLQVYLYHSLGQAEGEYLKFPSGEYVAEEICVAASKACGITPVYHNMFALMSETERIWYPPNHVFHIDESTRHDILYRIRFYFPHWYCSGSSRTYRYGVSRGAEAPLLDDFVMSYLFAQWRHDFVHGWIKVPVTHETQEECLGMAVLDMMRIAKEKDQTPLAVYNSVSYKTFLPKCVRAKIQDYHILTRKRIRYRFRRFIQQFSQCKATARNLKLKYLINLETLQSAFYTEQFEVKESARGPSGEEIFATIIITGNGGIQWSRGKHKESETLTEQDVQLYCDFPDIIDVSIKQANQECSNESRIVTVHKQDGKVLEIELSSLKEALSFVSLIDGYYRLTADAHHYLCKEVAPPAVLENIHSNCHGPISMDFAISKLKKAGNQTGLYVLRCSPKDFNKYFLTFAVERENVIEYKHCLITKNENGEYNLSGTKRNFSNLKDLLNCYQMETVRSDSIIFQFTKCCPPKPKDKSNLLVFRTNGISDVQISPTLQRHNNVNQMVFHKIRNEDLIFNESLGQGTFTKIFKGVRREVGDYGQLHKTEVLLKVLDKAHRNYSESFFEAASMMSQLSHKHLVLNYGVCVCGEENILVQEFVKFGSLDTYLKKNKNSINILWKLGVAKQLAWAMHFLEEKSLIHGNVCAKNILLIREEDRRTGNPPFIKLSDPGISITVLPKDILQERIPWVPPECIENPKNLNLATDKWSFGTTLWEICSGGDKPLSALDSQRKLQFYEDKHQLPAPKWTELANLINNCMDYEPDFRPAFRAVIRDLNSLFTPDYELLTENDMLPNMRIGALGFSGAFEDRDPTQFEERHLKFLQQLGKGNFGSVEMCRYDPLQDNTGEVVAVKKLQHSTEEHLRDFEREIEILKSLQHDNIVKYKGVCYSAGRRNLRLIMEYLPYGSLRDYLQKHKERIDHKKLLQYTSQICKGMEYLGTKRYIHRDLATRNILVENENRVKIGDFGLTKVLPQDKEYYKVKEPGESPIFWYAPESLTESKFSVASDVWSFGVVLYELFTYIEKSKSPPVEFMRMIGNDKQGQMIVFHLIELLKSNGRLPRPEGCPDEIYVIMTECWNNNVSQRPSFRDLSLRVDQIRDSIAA

How the values were obtained:
[1] = biological target: T1, Atoh1-GFP (knock-in, in mouse tissue) (mouse (endogenous knock-in in Nd2::SmoA1 tumours and cerebellum)) (UniProt P48985); assay: co-IP; IP of Jak2 (anti-Jak2) or Atoh1 (anti-GFP) from medulloblastoma tumor tissue
T1 sequence: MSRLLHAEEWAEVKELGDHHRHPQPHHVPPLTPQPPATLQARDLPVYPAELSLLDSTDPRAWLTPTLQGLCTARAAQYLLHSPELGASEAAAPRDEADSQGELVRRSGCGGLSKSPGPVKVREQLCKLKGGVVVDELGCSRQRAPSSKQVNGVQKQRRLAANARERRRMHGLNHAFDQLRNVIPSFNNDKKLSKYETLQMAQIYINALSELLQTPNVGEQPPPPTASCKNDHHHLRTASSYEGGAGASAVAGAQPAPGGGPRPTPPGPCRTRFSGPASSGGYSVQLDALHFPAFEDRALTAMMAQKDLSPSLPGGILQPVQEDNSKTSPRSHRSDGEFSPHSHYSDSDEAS

[2] = biological target: T1, Atoh1-GFP (knock-in, in mouse tissue) (mouse (endogenous knock-in in Nd2::SmoA1 tumours and cerebellum)); assay: co-IP; IP of Jak2 (anti-Jak2) or Atoh1 (anti-GFP) from normal P5 cerebellar tissue
Atoh1-nYFP (mouse) = biological target: T2, Atoh1-nYFP (mouse) (UniProt P48985); assay: split reporter; BiFC in DAOY cells transfected with Atoh1-nYFP and a kinase-cYFP; GFP signal read by flow cytometry; n = 3
T2 sequence: T1 sequence

Row | Substance | binding [1] | binding [2] | binding (Atoh1-nYFP (mouse))
1 | Janus kinase 2 (Jak2) (from UniProt Q62120 1-1132) (enzyme) | binds | no binding (condition: in normal P5 cerebellar tissue) | 
2 | Jak2-cYFP (from UniProt Q62120 1-1132) (enzyme) |  |  | binds
